{"sequences": {"note": "Sequences of proteins named here, by UniProt entry; tags and fusion partners are left off. A change or cut given only in a name is not applied to a line headed by its entry.", "UniProt P18054": "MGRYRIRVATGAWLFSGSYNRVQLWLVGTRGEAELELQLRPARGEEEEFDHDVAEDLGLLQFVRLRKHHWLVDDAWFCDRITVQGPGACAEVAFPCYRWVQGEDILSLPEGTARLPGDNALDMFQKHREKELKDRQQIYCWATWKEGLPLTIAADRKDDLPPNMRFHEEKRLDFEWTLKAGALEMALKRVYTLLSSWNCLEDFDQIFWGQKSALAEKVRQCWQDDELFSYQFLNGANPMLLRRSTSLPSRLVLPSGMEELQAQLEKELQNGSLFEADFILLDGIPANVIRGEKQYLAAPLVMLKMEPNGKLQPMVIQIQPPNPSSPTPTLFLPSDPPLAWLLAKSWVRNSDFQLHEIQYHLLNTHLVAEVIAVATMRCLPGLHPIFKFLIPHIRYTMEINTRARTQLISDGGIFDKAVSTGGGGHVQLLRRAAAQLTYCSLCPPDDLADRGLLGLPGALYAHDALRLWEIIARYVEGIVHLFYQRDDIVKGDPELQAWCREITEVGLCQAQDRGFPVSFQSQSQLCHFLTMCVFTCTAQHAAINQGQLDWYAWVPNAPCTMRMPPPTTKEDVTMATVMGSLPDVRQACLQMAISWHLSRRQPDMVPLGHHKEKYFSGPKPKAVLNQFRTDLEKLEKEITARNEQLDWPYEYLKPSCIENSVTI"}, "source": "PubChem BioAssay AID1671190", "about": "(National Center for Advancing Translational Sciences (NCATS), 2021)", "note": "Values joined by “and” are separate entries in the source; they are usually repeats but may differ in a detail not shown here. Identical values can stand only once. In all, about 580,000 compounds went through this assay and about 6,100 (1.1%) were called active. This list was built around the results that the source calls inconclusive (neither active nor inactive); the mix of calls is not that of the screen. Calls follow the shape of the dose curve; as a rule, active = well fitted inhibition curve with a large enough effect; inconclusive = small, poorly fitted or top-dose-only effect, or another doubt; inactive = no such curve, though single readings can be large or run the other way. A potency beside an inconclusive call is a rough fit, not a confirmed value. % is scaled to controls: 0 for no effect and ±100 for the full control effect; potency is read from the fitted curve at half-maximal effect."}
{"biological_target": "Polyunsaturated fatty acid lipoxygenase ALOX12 (Homo sapiens) (UniProt P18054)", "test": "Primary qHTS assay for inhibitors of human arachidonate 12S-lipoxygenase (ALOX12): Round 2", "conditions": "purified 12hLO, xylenol orange hydroperoxide absorbance; activity change, negative = inhibition: at 108 µM (top of the series) unless noted", "outline": "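Purified human 12hLO at 150 nM in 25 mM Hepes, 0.01% Triton X-100, pH 7.0, preincubated 15 min at room temperature with compound. Reaction started with 40 uM arachidonic acid, 30 min at room temperature. Hydroperoxide measured by Fe-xylenol orange, 573/405 nm absorbance ratio.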"}
{"smiles": "COc1ccc(C2CC(C(F)(F)F)n3nc(C(=O)N(C)Cc4cn(C)nc4C)c(Cl)c3N2)cc1", "note": "(stereo not given)", "activity change, negative = inhibition": "inactive: 16.2%"}
{"smiles": "Cc1ccc(S(=O)(=O)N(Cc2n[nH]c(=S)n2-c2ccccc2)c2cccc(Cl)c2)cc1", "Potency": "inconclusive: 56.2 µM [inhibitor, partial curve, poor fit]"}
{"smiles": "CC1CCCN(c2nc3ccccc3nc2NS(=O)(=O)c2ccc(Cl)cc2)C1", "note": "(stereo not given)", "Potency": "inconclusive: 89.1 µM [inhibitor, partial curve, poor fit]"}
{"smiles": "Cc1ccc(NC(=O)CSCC(=O)OC(C)C(=O)Nc2ccc(S(N)(=O)=O)cc2)c(C)c1", "note": "(stereo not given)", "Potency": "inconclusive: 141 µM [inhibitor, single point]"}
{"smiles": "O=C(CC1Sc2ccccc2NC1=O)NNc1cc(Cl)ccc1Cl", "note": "(stereo not given)", "Potency": "inconclusive: 141 µM [inhibitor, partial curve, poor fit]"}
{"smiles": "O=C(O)c1nnn(-c2cccc(Br)c2)c1C(F)(F)F", "Potency": "inconclusive: 5.01 µM [inhibitor, full curve]"}
{"smiles": "COC(=O)c1ccc2nc(-c3ccc(F)cc3)c(Cc3ccc(C)cc3)n2c1", "Potency": "inconclusive: 39.8 µM [inhibitor, single point]"}
{"smiles": "COc1cc2nc(N(C)C)nc(N)c2cc1OC", "Potency": "inconclusive: 11.2 µM [inhibitor, partial curve, poor fit]"}
{"smiles": "Cc1ccc(-n2c(-c3ccncc3)n[nH]c2=S)cc1C", "Potency": "inconclusive: 50.1 µM [inhibitor, partial curve, poor fit]"}
{"smiles": "Clc1ccc(-c2nc3ccc(Br)cn3c2Cc2cccc(Cl)c2)cc1", "Potency": "inconclusive: 50.1 µM [inhibitor, partial curve, poor fit]"}
{"smiles": "O=C(NCCCN1CCCC1=O)c1ccccc1C1CCNC1", "note": "(stereo not given)", "Potency": "inconclusive: 15.8 µM [inhibitor, full curve]"}
{"smiles": "CCCC[C@@H](CNC)NC[C@H](Cc1ccc(O)cc1)NCCc1ccc(OCC)cc1", "activity change, negative = inhibition": "inactive: -8.84%"}
{"smiles": "Oc1ccc(-c2cn3c(n2)SCC3)cc1", "Potency": "inconclusive: 50.1 µM [inhibitor, partial curve, poor fit]"}
{"smiles": "CC(=O)c1cccc(NC(=O)C2CCCN2S(=O)(=O)c2cccs2)c1", "note": "(stereo not given)", "activity change, negative = inhibition": "inactive: 5.39%"}
{"smiles": "O=C(NCc1ccc2c(c1)OCO2)C1CCN(C(=O)Nc2ccc(Cl)cc2)CC1", "activity change, negative = inhibition": "inactive: 0%"}
{"smiles": "Cc1cc(C)cc(NC(=S)Nc2cccc3cnccc23)c1", "Potency": "inconclusive: 44.7 µM [inhibitor, partial curve, poor fit]"}
{"smiles": "c1ccc(COc2ccc(Oc3cc(-c4nc5ccccc5s4)c4ccccc4n3)cc2)cc1", "Potency": "inconclusive: 44.7 µM [inhibitor, partial curve, poor fit]"}
{"smiles": "O=C(O)Cn1cc(/C=C/[N+](=O)[O-])c2ccccc21", "Potency": "inconclusive: 50.1 µM [inhibitor, partial curve, poor fit]"}
{"smiles": "COc1ccccc1CC(C(=O)Nc1ccccc1C)c1nn[nH]n1", "note": "(stereo not given)", "Potency": "inconclusive: 39.8 µM [inhibitor, partial curve, poor fit]"}
{"smiles": "COCCCN1C(=O)C(=O)/C(=C(/O)c2ccc(C)cc2)C1/C=C/c1ccccc1", "note": "(stereo not given)", "Potency": "inconclusive: 17.8 µM [inhibitor, partial curve, poor fit]"}
{"smiles": "NNC(=O)C1CCCN1S(=O)(=O)c1ccc(Cl)cc1", "note": "(stereo not given)", "activity change, negative = inhibition": "inactive: 1.31%"}
{"smiles": "COc1cccc(NC(=O)CCc2nnc3n(CCc4ccccc4)c(=O)c4ccccc4n23)c1", "activity change, negative = inhibition": "inactive: 8.48%"}
{"smiles": "O=C(Nc1ccc(F)cc1)N1CC(=O)N2[C@H](CO)[C@@H](c3ccc(Br)cc3)[C@H]2C1", "Potency": "inconclusive: 44.7 µM [inhibitor, partial curve, poor fit]"}
{"smiles": "CC(=O)Nc1sc(N/N=C\\c2ccccc2)nc1-c1cccs1", "activity change, negative = inhibition": "inactive: -26.4%"}
{"smiles": "O=C(NCCOC(=O)c1cccs1)c1cccnc1", "Potency": "inconclusive: 11.2 µM [inhibitor, partial curve, poor fit]"}
{"smiles": "O=C(CCCN1CCC(O)(c2cccc(C(F)(F)F)c2)CC1)c1ccc(F)cc1", "Potency": "inconclusive: 10.2 µM [inhibitor, partial curve, poor fit] and inconclusive: 22.4 µM [inhibitor, partial curve, poor fit]"}
{"smiles": "CC(C)c1cc2c(c(O)c1O)[C@@]13CCCC(C)(C)C1CC2OC3=O", "note": "(stereo not given in full)", "Potency": "inconclusive: 2.82 µM [inhibitor, partial curve, poor fit]"}
{"smiles": "CN(C)C(=S)SCCCCC#N", "Potency": "inconclusive: 50.1 µM [inhibitor, partial curve, poor fit]"}
{"smiles": "CC(C)n1nc(C(=O)N2CCSCC2)c2ccccc2c1=O", "activity change, negative = inhibition": "inactive: 39%"}
{"smiles": "N#CCC(=O)NCCCOC(=O)Nc1ccc(Cl)c(Cl)c1", "Potency": "inconclusive: 44.7 µM [inhibitor, partial curve, poor fit]"}
{"smiles": "CN(C(=S)Nc1ccc(Oc2ccccc2)cc1)C1CCCCC1", "Potency": "inconclusive: 44.7 µM [inhibitor, partial curve, poor fit]"}
{"smiles": "COc1ccc(-c2nnc(SC(C)C(=O)Nc3nccs3)n2Cc2ccccc2)cc1OC", "note": "(stereo not given)", "Potency": "inconclusive: 44.7 µM [inhibitor, single point]"}
{"smiles": "Cc1ccc(/C(O)=C2/C(=O)C(=O)N(CC(=O)O)C2c2ccc([N+](=O)[O-])cc2)cc1", "note": "(stereo not given)", "Potency": "inconclusive: 2.82 µM [inhibitor, full curve, poor fit]"}
{"smiles": "O=S(Cc1ccc(Cl)cc1)Cc1c(F)cccc1Cl", "note": "(stereo not given)", "Potency": "inconclusive: 112 µM [inhibitor, single point]"}
{"smiles": "CC(=O)Oc1ccc2ccccc2c1C(NC(=O)Cc1ccccc1)c1ccccc1", "note": "(stereo not given)", "activity change, negative = inhibition": "inactive: 3.8%"}
{"smiles": "COc1ccccc1N1CCN(C(CNS(=O)(=O)c2cccs2)c2cccnc2)CC1", "note": "(stereo not given)", "activity change, negative = inhibition": "inactive: 25.6%"}
{"smiles": "COC(=O)CN(CC(=O)NC(N)=O)Cc1ccccc1", "Potency": "inconclusive: 28.2 µM [inhibitor, single point]"}
{"smiles": "C[C@H](CO)N1C[C@H](C)[C@@H](CN(C)Cc2ccc(-c3ccccc3)cc2)Oc2c(NC(=O)c3ccncc3)cccc2C1=O", "Potency": "inconclusive: 2.51 µM [inhibitor, full curve, poor fit]"}
{"smiles": "COc1cccc2cc(C(=O)N(C)CCOc3ccc(F)cc3)c(=O)oc12", "activity change, negative = inhibition": "inactive: 21.6%"}
{"smiles": "CC(=O)Nc1ccc(S(=O)(=O)Nc2c(NC3CCCC3)c3ccccc3oc2=O)cc1", "Potency": "inconclusive: 126 µM [inhibitor, single point]"}
